Results: patent publication US7744920B2, “Use of liposomal glucocorticoids for treating inflammatory states” (Hadasit Medical Research Services & Development Limited, priority 2004, dated 2010)

Conditions: up to concentration of 50 mM
Method: Surface tension was measured using μtrouge S (Kibron Inc., Helsinki Finland). A solution containing GC derivative (300 μL) was placed in the well after calibration and zeroing of the sensor using pure water and air. The measurement was performed at 26° C.

In the case of C[C@@H]1C[C@H]2[C@@H]3CCC4=CC(=O)C=C[C@]4(C)[C@@]3(F)[C@@H](O)C[C@]2(C)[C@@]1(O)C(=O)COP(=O)(O)O [Dexamethasone phosphate], the surface activity is reported as “not surface active”.
